Assay results taken from PubChem BioAssay AID602313 (National Center for Advancing Translational Sciences (NCATS), 2012).
Hit rate of the full screen: of about 390,000 compounds, about 760 (0.19%) were called active. The shares of active, inactive and inconclusive entries below differ from those in the screen. Calls follow the shape of the dose curve; as a rule, active = well fitted inhibition curve with a large enough effect; inconclusive = small, poorly fitted or top-dose-only effect; inactive = flat fitted curve, though single readings scatter. Potencies beside an inconclusive call are fits to weak or partial responses and may not hold up.
Potency is read from the fitted curve at half-maximal effect.

Assay: qHTS for Inhibitors of Vif-A3F Interactions: qHTS; also: nearly all actives have a fitted effect of over 65% in size; as to activity, negative = active: % of control where 0% means no effect
Details: HeLa A3F-eYFP + Vif (tagged APOBEC3F with the HIV-1 protein that degrades it), YFP fluorescence increase; series mostly up to 46.1 µM; activity, negative = active: at the top concentration
Method in brief: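 HeLa cells stably expressing Vif plus C-terminally eYFP-tagged A3F were seeded, incubated overnight at 37 deg C, dosed with compound, incubated overnight again at 37 deg C. Yellow fluorescence (Ex 488/Em 500-530) reported blocked Vif-mediated A3F-eYFP degradation.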
For `Cc1cccc(Cn2cccc2CNS(=O)(=O)c2ccccc2F)c1`, the “activity, negative = active” value was inactive: -4.85%.
For `CCc1ccc(-c2cn(C3CCCCC3)c(=S)[nH]2)cc1`, the Potency was inconclusive: 4.47 µM [inhibitor, single point].
With `Fc1ccc2nc(Nc3nc4cc5c(cc4s3)OCO5)sc2c1` the Potency was inconclusive: 35.5 µM [inhibitor, single point].
With `Cn1nnc(NC(=S)NC(=O)c2cc3ccccc3o2)n1` the Potency was inconclusive: 3.55 µM [inhibitor, partial curve, poor fit].
With `O=C(c1ccc([N+](=O)[O-])o1)N1CCN(c2nc3c(F)cc(F)cc3s2)CC1` the Potency was inconclusive: 6.31 µM [inhibitor, single point].
With `COc1ccccc1NC(=O)Nc1ccc(Cc2ccncc2)cc1` the “activity, negative = active” value was inactive: 4.49%.
In the case of `Cc1nnc(N=c2ssnc2Cl)o1`, the Potency is reported as inconclusive: 0.562 µM [inhibitor, partial curve, poor fit].
In the case of `Cc1ccc(S(=O)(=O)Cc2ccc(C(=O)N3CCN(c4cccc(Cl)c4)CC3)o2)cc1`, the “activity, negative = active” value is reported as inactive: -4.52%.
With `C=CC(=O)N1C/C(=C/c2ccccc2)C(=O)/C(=C\c2ccccc2)C1` the Potency was inconclusive: 3.16 µM [inhibitor, partial curve, poor fit].
In the case of `COc1cc(OC)cc(-c2nn[nH]n2)c1`, the Potency is reported as inconclusive: 10 µM [inhibitor, partial curve].
With `O=C(NC(=S)Nc1ccccc1N1CCCC1)c1ccco1` the Potency was inconclusive: 35.5 µM [inhibitor, single point].
For `Cc1cccc(NC(=S)/N=C(\N)Nc2nc(C)c3ccccc3n2)c1`, the Potency was inconclusive: 11.2 µM [inhibitor, single point].
For `Cc1ccc(N=C2NC(=O)/C(=C/c3cccn3C)S2)cc1`, the Potency was inconclusive: 28.2 µM [inhibitor, single point].
In the case of `CCC(=O)Oc1c(Sc2ccc(Cl)cc2)c(C)nn1C(C)(C)C`, the “activity, negative = active” value is reported as inactive: -0.74%.
With `CCC1CN(C(=O)NCc2ccccc2)c2ccccc2O1` (stereo unspecified) the “activity, negative = active” value was inactive: 6.09%.
In the case of `CN(Cc1cccnc1)Cc1cn(C)nc1-c1ccc(Oc2ccccc2)cc1`, the Potency is reported as inconclusive: 14.1 µM [inhibitor, single point].
For `O=C(NC1CCCCC1)N(Cc1nc2ccccc2c(=O)[nH]1)C1CCCCC1`, the “activity, negative = active” value was inactive: -3.81%.
In the case of `COc1cccc(CNC(=O)CN2C(=O)CSc3ccc(S(=O)(=O)N(C)C)cc32)c1`, the “activity, negative = active” value is reported as inactive: -5.29%.
In the case of `N#Cc1c(-c2ccccc2)cc(-c2ccccc2)nc1SCC(=O)NCC(=O)O`, the “activity, negative = active” value is reported as inactive: -9.67%.
In the case of `NC(=S)N/N=C1\CCSc2ccc(Cl)cc21`, the Potency is reported as inconclusive: 14.1 µM [inhibitor, partial curve, poor fit].
For `Nc1c(C(=O)NCc2ccccc2)nnn1Cc1ccccc1`, the Potency was inconclusive: 25.1 µM [inhibitor, single point].
In the case of `O=C(CSc1nc2ccccc2c(=O)n1CC1CCCO1)NCC1CCCO1` (stereo unspecified), the “activity, negative = active” value is reported as inactive: -3.24%.
In the case of `S=C(Nc1ccc(N2CCOCC2)cc1)Nc1ccc2nc(-c3ccco3)c(-c3ccco3)nc2c1`, the Potency is reported as inconclusive: 35.5 µM [inhibitor, single point].
In the case of `COc1ccc2nc3sc(C(=O)Nc4cc(Cl)c(OC)cc4OC)cc3cc2c1`, the Potency is reported as active: 7.08 µM.
For `CCOc1cc(N(CC)CC)ccc1/C=C(/C#N)c1nc2ccccc2[nH]1`, the Potency was active: 3.55 µM.
In the case of `C=CCNC(=S)N/N=C/c1ccc(C(C)(C)C)cc1`, the Potency is reported as inconclusive: 5.62 µM [inhibitor, single point].
With `CCOCCCn1c(=N)c(S(=O)(=O)c2ccc(C)cc2)cc2c(=O)n3ccccc3nc21` the Potency was inconclusive: 35.5 µM [inhibitor, single point].
In the case of `N#C/C(=C\c1ccc(N2CCOCC2)o1)C(=O)Nc1ccc(O)cc1`, the Potency is reported as inconclusive: 3.55 µM [inhibitor, partial curve, poor fit].
In the case of `COc1cccc(-n2c(=O)c3sc4ccccc4c3n(CC(=O)Nc3ccc(F)cc3F)c2=O)c1`, the Potency is reported as inconclusive: 11.2 µM [inhibitor, single point].
With `CC(=O)NC(c1cccs1)c1cc(F)c2cccnc2c1O` (stereo unspecified) the Potency was active: 10 µM.
For `CCOC(=O)c1c(C)sc(-c2c(-c3ccc4c(c3)OCCO4)[nH]c3c2c(=O)[nH]c(=O)n3C)c1O`, the Potency was inconclusive: 22.4 µM [inhibitor, single point].
In the case of `COc1ccc(CNC(=O)CCc2nc3cccnc3n2Cc2ccccc2)cc1`, the “activity, negative = active” value is reported as inactive: -3.23%.
With `COc1cc(NC(=O)N[C@@H](CCSC)C(=O)O)cc(OC)c1` the Potency was inconclusive: 3.16 µM [inhibitor, single point].
For `COc1cccc(NC(=O)CSc2nnc(COc3ccc4c(c3)CCCC4)o2)c1`, the “activity, negative = active” value was inactive: 1.18%.
In the case of `Cc1cc(C)n2nc(N)c(N=Nc3ccc4c(c3)OCO4)c2n1`, the Potency is reported as inconclusive: 10 µM [inhibitor, partial curve, poor fit].
In the case of `CN1C(=O)/C(=C/c2ccccc2OCc2ccccc2)NC1=S`, the “activity, negative = active” value is reported as inactive: 0.515%.
In the case of `CCc1nc(SCC(=O)NNC(=O)c2ccc(OC)cc2)c2ccccc2n1`, the Potency is reported as inconclusive: 35.5 µM [inhibitor, partial curve, poor fit].
In the case of `Cc1ccc(NC(=S)NNC(C)(C)C)cc1`, the Potency is reported as inconclusive: 3.98 µM [inhibitor, partial curve, poor fit].
With `N#Cc1c(C(F)(F)F)cc(-c2ccccc2)nc1SCC(=O)Nc1sc2c(c1C#N)CCC2` the Potency was inconclusive: 3.16 µM [inhibitor, partial curve, poor fit].
For `Cc1cc(C)c2c(-n3cccc3)c(C(=O)NCCCN3CCCCC3)sc2n1`, the “activity, negative = active” value was inactive: 7.9%.
For `O=C(Nc1ccc(NC(=S)NC(=O)c2ccccc2Cl)cc1)c1cccc(Cl)c1`, the Potency was inconclusive: 35.5 µM [inhibitor, single point].
In the case of `Cc1nn(Cc2ccc(F)cc2)c(Cl)c1/C=N/NC(=O)c1ccccc1`, the “activity, negative = active” value is reported as inactive: -1.2%.
For `COc1ccc(S(=O)(=O)Nc2cc(S(=O)(=O)c3ccccc3)c(O)cc2C)cc1`, the Potency was inconclusive: 15.8 µM [inhibitor, single point].
With `CCS(=O)(=O)c1ccc(-c2csc(-c3ccc(Cl)cc3)n2)c(Cl)c1Cl` the “activity, negative = active” value was inactive: -8.4%.
In the case of `Cn1cc(S(=O)(=O)Nc2ccc(OC(F)(F)F)cc2)c(=O)n(C)c1=O`, the “activity, negative = active” value is reported as inactive: -20.4%.
For `COc1ccc(CNC(=O)C2CCN(c3nc4ccc(C)cc4[nH]3)CC2)cc1`, the “activity, negative = active” value was inactive: -1.83%.
For `N#C/C(C(=S)Nc1ccccc1)=C1/NN=C(N2CCOCC2)N1c1ccccc1`, the Potency was inconclusive: 35.5 µM [inhibitor, single point].
For `CCOc1ccc(Nc2ccc(N)c(S(=O)(=O)O)c2)cc1`, the Potency was inconclusive: 35.5 µM [inhibitor, single point].
In the case of `O=C(CCNS(=O)(=O)c1ccc2c(c1)CCN2C(=O)C1CC1)N1CCN(c2ccc(F)cc2)CC1`, the “activity, negative = active” value is reported as inactive: 2.62%.
In the case of `O=C(CN1C(=O)C(=O)N(CCC2=CCCCC2)C1=O)c1c[nH]c2ccccc12`, the Potency is reported as inconclusive: 35.5 µM [inhibitor, single point].
For `Cc1cc(NC(=O)CSc2nc3c(C)cccc3cc2C#N)no1`, the Potency was active: 11.2 µM.
In the case of `CCc1nc2ccccc2n1CCCCOc1ccccc1C`, the “activity, negative = active” value is reported as inactive: -17.3%.
In the case of `COc1cc(NCCCC(C)N)c2ncccc2c1` (stereo unspecified), the “activity, negative = active” value is reported as inactive: -2.8%.
In the case of `CC(=O)Nc1ccccc1-c1nc2ccc(C(=O)N3CCN(c4cccc(C)c4)C(C)C3)cc2[nH]c1=O` (stereo unspecified), the Potency is reported as inconclusive: 17.8 µM [inhibitor, partial curve, poor fit].
With `CC(C)c1ccc(NC(=O)C(c2ccccc2)N2CC(=O)Nc3ccccc32)cc1` (stereo unspecified) the Potency was inconclusive: 17.8 µM [inhibitor, single point].
In the case of `COc1ccc(CC(=O)Oc2ccc(F)cc2)cc1`, the “activity, negative = active” value is reported as inactive: 5.87%.
For `Cc1ccc(C)c(NC(=O)CSc2ncc3c(n2)-c2ccc(Cl)cc2N(C)S3(=O)=O)c1`, the Potency was inconclusive: 3.55 µM [inhibitor, single point].
In the case of `O=C(OCC(=O)N1CCCCC1)c1cc(S(=O)(=O)N2CCOCC2)c(Cl)cc1Cl`, the “activity, negative = active” value is reported as inactive: -2.4%.
With `CCOc1ccc(-c2nn(-c3ccccc3)cc2/C=C2\SC(=S)N(C3CCS(=O)(=O)C3)C2=O)cc1` (stereo unspecified) the Potency was inconclusive: 28.2 µM [inhibitor, single point].
With `Nc1ncc(-c2ccccc2)c(-c2ccc(OCc3ccccc3)cc2O)n1` the “activity, negative = active” value was inactive: -6.5%.
For `CCc1cnccc1CCC(=O)Nc1ccccc1C`, the Potency was inconclusive: 35.5 µM [inhibitor, single point].
With `COc1ccc2nc(-c3ccccn3)ccc2c1` the Potency was inconclusive: 3.16 µM [inhibitor, single point].
For `COc1ccc(C(O)(C2CCCCC2)C(CN2CCOCC2)c2ccccc2)cc1` (stereo unspecified), the Potency was inconclusive: 35.5 µM [inhibitor, single point].
For `Nc1ccc2cc3ccccc3cc2c1`, the Potency was inconclusive: 3.55 µM [inhibitor, partial curve, poor fit].
With `CCN(CC)S(=O)(=O)c1cc(C(=O)Nc2cc(S(=O)(=O)N3CCOCC3)ccc2N2CCN(C)CC2)ccc1C` the “activity, negative = active” value was inactive: 5.14%.
For `Cc1ccc(Cn2nnc3c(=O)[nH]c(C4CCCN(S(=O)(=O)c5ccc(F)cc5)C4)nc32)cc1` (stereo unspecified), the Potency was inconclusive: 22.4 µM [inhibitor, single point].
For `N#Cc1ccsc1NC(=O)c1ccc2ncsc2c1`, the Potency was inconclusive: 14.1 µM [inhibitor, single point].
With `COC(=O)C1=C(N)Oc2c(oc(CO)cc2=O)C1c1c(F)cccc1Cl` (stereo unspecified) the Potency was inconclusive: 35.5 µM [inhibitor, single point].
In the case of `C=C(C)CN=CC1(C)CCC(C)=CO1` (stereo unspecified), the Potency is reported as inconclusive: 2.82 µM [inhibitor, single point].
For `O=C(Nc1ccccc1C(F)(F)F)C1CCCC1`, the “activity, negative = active” value was inactive: 8.15%.
In the case of `Cc1cc2oc(C(=O)Nc3sc4c(c3C(=O)NCC3CCCO3)CCC4)cc(=O)c2cc1C` (stereo unspecified), the Potency is reported as inconclusive: 35.5 µM [inhibitor, partial curve, poor fit].
